This assay addresses T1, CDKN2AIP (CDKN2A interacting protein) (mouse (endogenous in testis)) (UniProt Q8BI72).
T1 sequence: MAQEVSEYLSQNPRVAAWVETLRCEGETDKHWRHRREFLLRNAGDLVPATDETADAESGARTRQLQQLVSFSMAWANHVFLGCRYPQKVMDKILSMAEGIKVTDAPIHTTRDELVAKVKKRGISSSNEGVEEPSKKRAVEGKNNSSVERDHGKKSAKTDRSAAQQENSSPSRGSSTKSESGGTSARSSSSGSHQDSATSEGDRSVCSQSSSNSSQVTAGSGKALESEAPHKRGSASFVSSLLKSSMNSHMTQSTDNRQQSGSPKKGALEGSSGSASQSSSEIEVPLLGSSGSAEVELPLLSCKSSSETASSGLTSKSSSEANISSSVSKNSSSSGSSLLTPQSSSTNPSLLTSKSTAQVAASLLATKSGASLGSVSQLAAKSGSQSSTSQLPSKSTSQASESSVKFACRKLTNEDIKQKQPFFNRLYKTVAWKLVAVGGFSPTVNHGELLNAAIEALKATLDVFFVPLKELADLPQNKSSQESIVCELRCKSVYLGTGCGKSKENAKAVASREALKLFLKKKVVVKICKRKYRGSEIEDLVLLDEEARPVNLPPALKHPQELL
Briefly: co-IP; testis lysates from Cdkn2aip+/+ mice; immunoprecipitation with anti-CDKN2AIP antibody, western blot with anti-SUN1 antibody; IgG as control. A general note: In western blotting, separated proteins are transferred to a membrane and probed.

Results are given in words; binding and its absence hold for the method and conditions named. In cells and extracts the contact can be indirect. Some entries that bind do so weakly or less than the wild type.

B1: SUN1 (protein, UniProt Q9D666 1-913)
chain: MDFSRLHTYTPPQCVPENTGYTYALSSSYSSDALDFETEHKLEPVFDSPRMSRRSLRLVTTASYSSGDSQAIDSHISTSRATPAKGRETRTVKQRRSASKPAFSINHLSGKGLSSSTSHDSSCSLRSATVLRHPVLDESLIREQTKVDHFWGLDDDGDLKGGNKAATQGNGELAAEVASSNGYTCRDCRMLSARTDALTAHSAIHGTTSRVYSRDRTLKPRGVSFYLDRTLWLAKSTSSSFASFIVQLFQVVLMKLNFETYKLKGYESRAYESQSYETKSHESEAHLGHCGRMTAGELSRVDGESLCDDCKGKKHLEIHTATHSQLPQPHRVAGAMGRLCIYTGDLLVQALRRTRAAGWSVAEAVWSVLWLAVSAPGKAASGTFWWLGSGWYQFVTLISWLNVFLLTRCLRNICKVFVLLLPLLLLLGAGVSLWGQGNFFSLLPVLNWTAMQPTQRVDDSKGMHRPGPLPPSPPPKVDHKASQWPQESDMGQKVASLSAQCHNHDERLAELTVLLQKLQIRVDQVDDGREGLSLWVKNVVGQHLQEMGTIEPPDAKTDFMTFHHDHEVRLSNLEDVLRKLTEKSEAIQKELEETKLKAGSRDEEQPLLDRVQHLELELNLLKSQLSDWQHLKTSCEQAGARIQETVQLMFSEDQQGGSLEWLLEKLSSRFVSKDELQVLLHDLELKLLQNITHHITVTGQAPTSEAIVSAVNQAGISGITEAQAHIIVNNALKLYSQDKTGMVDFALESGGGSILSTRCSETYETKTALLSLFGVPLWYFSQSPRVVIQPDIYPGNCWAFKGSQGYLVVRLSMKIYPTTFTMEHIPKTLSPTGNISSAPKDFAVYGLETEYQEEGQPLGRFTYDQEGDSLQMFHTLERPDQAFQIVELRVLSNWGHPEYTCLYRFRVHGEPIQ
As to B1, the binding entry was “binds”.

These data come from article PMC9394077.
